Patent EP4725955A1, “PEPTIDE TARGETING C-MET, PHARMACEUTICAL COMPOSITION COMPRISING SAID PEPTIDE AND USE THEREOF” (Nanjing Anji Biotechnology Co., Ltd., priority 2023, dated 2025)
Not every detail of the peptide structures is certain; ends, links or a residue may be inferred. Where a SMILES comes first, the peptide text is derived from it. Where no end group is shown, it is not given here. The star is where a group is joined. FITC = O=C1OC2(c3ccc(O)cc3Oc3cc(O)ccc32)c2ccc(NC(=S)*)cc21; Ahx = NCCCCCC(=O)O

Chains of the proteins cited; added tags and fusions are not shown. Residues count along the entry.
UniProt P08581, 25-1390: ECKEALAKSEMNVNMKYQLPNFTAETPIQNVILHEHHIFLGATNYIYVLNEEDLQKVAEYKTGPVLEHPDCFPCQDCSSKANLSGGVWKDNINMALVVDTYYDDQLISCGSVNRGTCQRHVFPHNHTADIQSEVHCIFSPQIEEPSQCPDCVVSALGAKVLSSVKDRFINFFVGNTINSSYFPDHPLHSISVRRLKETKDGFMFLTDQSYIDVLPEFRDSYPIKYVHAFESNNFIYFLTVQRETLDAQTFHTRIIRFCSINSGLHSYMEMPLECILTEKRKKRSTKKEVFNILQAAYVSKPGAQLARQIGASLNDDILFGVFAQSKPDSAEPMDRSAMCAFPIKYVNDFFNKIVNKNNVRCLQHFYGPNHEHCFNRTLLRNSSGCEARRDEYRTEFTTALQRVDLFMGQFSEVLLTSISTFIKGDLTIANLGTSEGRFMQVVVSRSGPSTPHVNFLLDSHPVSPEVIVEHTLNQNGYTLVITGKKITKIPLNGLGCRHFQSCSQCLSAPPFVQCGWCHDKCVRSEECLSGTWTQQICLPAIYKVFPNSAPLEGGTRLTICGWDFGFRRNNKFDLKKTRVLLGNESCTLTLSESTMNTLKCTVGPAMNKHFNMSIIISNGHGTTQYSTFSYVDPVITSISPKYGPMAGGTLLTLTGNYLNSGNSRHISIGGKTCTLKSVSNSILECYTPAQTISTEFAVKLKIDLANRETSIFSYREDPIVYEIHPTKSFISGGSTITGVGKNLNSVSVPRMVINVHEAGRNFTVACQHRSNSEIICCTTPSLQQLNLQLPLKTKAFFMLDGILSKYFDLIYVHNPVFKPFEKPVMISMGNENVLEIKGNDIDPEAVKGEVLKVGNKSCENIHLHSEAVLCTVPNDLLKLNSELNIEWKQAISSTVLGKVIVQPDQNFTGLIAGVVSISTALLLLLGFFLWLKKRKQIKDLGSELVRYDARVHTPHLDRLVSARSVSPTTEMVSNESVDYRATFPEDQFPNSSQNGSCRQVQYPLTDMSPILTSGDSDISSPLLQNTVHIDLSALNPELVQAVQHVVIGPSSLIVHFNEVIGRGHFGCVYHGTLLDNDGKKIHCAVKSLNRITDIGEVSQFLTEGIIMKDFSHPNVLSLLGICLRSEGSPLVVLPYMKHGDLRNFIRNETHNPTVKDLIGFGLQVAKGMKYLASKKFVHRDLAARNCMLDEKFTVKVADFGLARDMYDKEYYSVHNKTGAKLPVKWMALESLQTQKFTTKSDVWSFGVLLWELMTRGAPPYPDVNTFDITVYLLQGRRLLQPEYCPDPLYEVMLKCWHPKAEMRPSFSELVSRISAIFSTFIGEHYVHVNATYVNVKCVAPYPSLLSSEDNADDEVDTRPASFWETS

Tests used:
[1] = biological target: c-Met positive cell MKN-45 (Homo sapiens, UniProt P08581); assay: Flow cytometry detection of binding of FITC-labelled peptide to c-Met positive cell MKN-45; format: cell-based; conditions: for binding affinity to c-Met compared with CM7-1: conclusion of Example 9
Experimental: MKN 45 cells cultured in a 1640 culture solution (Nanjing Senbeijia Biotechnology Co., Ltd.) were collected, and washed twice with pre-cooled PBS. 1 mL of 1% BSA solution was added into the washed cells, and then the above mixed system was placed on a rotary mixer (Lichen Technology Co., Ltd.) and incubated for 30 min at 4°C. Different concentrations of FITC-P1-AI, FITC-CM7-1, FITC-CM7-1.1, FITC-CM7-1.2, FITC-CM7-1.3, FITC-CM7-1.4, FITC-CM7-1.5 and FITC-CM7-1.6 peptide solutions were respectively added in the dark to obtain multiple groups, and then the mixtures were placed on the rotary mixer and incubated for 1 h at 4°C in the dark. After the incubation was completed, the mixed system of the cells was centrifuged for 5 min at 800 rpm, and then supernatant was discarded. The cells were washed twice with pre-cooled PBS, and the concentration of the cells was adjusted to 1×10^6 cells/mL using PBS. 3 parallel replicate wells were set up for cells in each group, with 0.5 mL prepared per sample; and a flow cytometer was used to detect the binding of the peptide to c-Met positive cell MKN-45, EC50 data and a binding curve were generated. […] Table 2 Binding affinity of peptide to MKN-45
MKN-45 cells cultured in a 1640 culture solution were collected, and washed twice with pre-cooled PBS 1 mL of 1% BSA solution was added into the washed cells, and then the above mixed system was placed on a rotary mixer and incubated for 30-60 min at 4°C. 10 µM of FITC-P1-AI peptide solution and FITC-CM7-1 were respectively added in the dark to form two groups, and the above mixed systems were placed on the rotary mixer and incubated for 1 h at 4°C in the dark. After the incubation was completed, the mixed system of the cells was centrifuged for 5 min at 800 rpm, and then supernatant was discarded. The cells were washed 1-2 times with pre-cooled PBS, and then the concentration of the washed cells was adjusted to 1×10^6 cells/mL by using PBS. 3 parallel replicate wells were set up for cells in each group, with 0.5 mL prepared per sample; and a flow cytometer was used to detect the binding of the peptide to c-Met positive cells.
The MKN-45 cells cultured in a 1640 culture solution were collected, and washed twice with pre-cooled PBS. […] After the incubation was completed, the mixed system of the cells was centrifuged for 5 min at 800 rpm, and then supernatant was discarded. The cells were washed 1-2 times with pre-cooled PBS, and then the concentration of the washed cells was adjusted to 1×10^6 cells/mL by using PBS. 3 parallel replicate wells were set up for cells in each group, with 0.5 mL prepared per sample; and a flow cytometer was used to detect the binding of the peptide to the c-Met positive cell MKN-45. […] Table 4 Sequences of Peptides

[2] = tested on: human hepatic stellate cell LX-2; assay: Specificity: flow cytometry binding of peptide to LX-2 cells that barely express c-Met; format: cell-based; conditions: concentration of up to 10 µM, cells barely expressing c-Met, FIG. 8
Experimental: Human hepatic stellate cells LX-2 cultured in a 1640 culture solution were collected, and washed twice with pre-cooled PBS. 1 mL of 1% BSA solution was added into the washed cells, and then the above mixed system were placed on a rotary mixer and incubated for 30 min at 4°C. 10 µM of FITC-P1-AI peptide solution and FITC-CM7-1 were respectively added in the dark to form two groups, and the above mixed systems were placed on the rotary mixer and incubated for 1 h at 4°C in the dark. After the incubation was completed, the mixed system of the cells was centrifuged for 5 min at 800 rpm, and then supernatant was discarded. The cells were washed twice with pre-cooled PBS, and the concentration of the cells was adjusted to 1×10^6 cells/mL using PBS. 3 parallel replicate wells were set up at concentrations of 1 µM, 5 µM and 10 µM for cells in each group, with 0.5 mL prepared per sample; and a flow cytometer was used to detect the binding of the peptide to LX-2 cells.

[3] = biological target: c-Met protein (Homo sapiens, UniProt P08581); assay: Interaction between peptide and c-Met protein by microscale thermophoresis (MST); format: binding; conditions: ratio of Kd values

| Compound | binding affinity to c-Met compared with CM7-1 [1] | also measured |
| --- | --- | --- |
| CC[C@H](C)[C@H](NC(=O)[C@H](CCC(N)=O)NC(=O)[C@H](C)NC(=O)CCCCCNC(=S)Nc1ccc2c(c1)C(=O)OC21c2ccc(O)cc2Oc2cc(O)ccc21)C(=O)N[C@H](C(=O)N[C@@H](C)C(=O)N[C@@H](CC(N)=O)C(=O)N[C@@H](CC(N)=O)C(=O)O)[C@@H](C)CC [CM7-1.1, AQIIANN] ({FITC-Ahx}-AQIIANN-OH) | – | affinity to c-Met positive cell MKN45 relative to CM7-1 ([1]; comparison of EC50 with CM7-1, FITC-labelled peptides tested): increased affinity |
| CC[C@H](C)[C@H](NC(=O)[C@H](CCC(N)=O)NC(=O)[C@H](CC(=O)O)NC(=O)CCCCCNC(=S)Nc1ccc2c(c1)C(=O)OC21c2ccc(O)cc2Oc2cc(O)ccc21)C(=O)N[C@H](C(=O)N[C@@H](C)C(=O)N[C@@H](CC(N)=O)C(=O)N[C@@H](CC(N)=O)C(=O)O)[C@@H](C)CC [FITC-CM7-1, FITC-DQIIANN, reference compound] | – | binding to LX-2 cells [2]: barely binds |
| RSPYANS [P1-AI, RSPYANS] | superior | increase of affinity to the c-Met protein compared with CM7-1 [3]: 30.9 fold |
| C[C@H](NC(=O)[C@H](CC(N)=O)NC(=O)[C@H](C)NC(=O)[C@H](Cc1ccc(O)cc1)NC(=O)[C@@H]1CCCN1C(=O)[C@H](CO)NC(=O)[C@H](CCCNC(=N)N)NC(=O)CCCCCNC(=S)Nc1ccc2c(c1)C(=O)OC21c2ccc(O)cc2Oc2cc(O)ccc21)C(=O)O [P1-AI-7, RSPYANA] | superior | – |
| RSPYAAS [P1-AI-6, RSPYAAS] | superior | – |
